Out of some 52,000 sequences screened, about 210 (0.4%) were called active.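 How the source made its calls: active means gene whose silencing raises cell survival under the drug, median off-target-corrected z-score across its silencing RNAs 2 or more; inactive means the rest.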 Some of the results follow.
Assay: Resistance to Poly (ADP-Ribose) Polymerase inhibitor: Gene Identification via Genome-wide siRNA Screen
Conditions: mouse BRCA2 R2336H ES cells, olaparib, CellTiter-Glo viability; hits give high values
Method in brief: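 Mouse BRCA2 R2336H ES cells were reverse-transfected with siRNA (20 nM final), treated at 48 h with 500 nM olaparib, and read by CellTiter-Glo after 72 h. Scores: MAD-based z per siRNA, median per gene, seed off-target correction.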

Sequence | z-score
CCCUUGAGUCAUUCUCUAATT against Gsto1 | inactive: -0.252
GGAAGUAGGAUAUUUACACTT against Mg29 | inactive: 1.16
CCUUUAGUGUGGGUUUAUUTT against Mcm10 | inactive: 0.833
CCACUAUCGCAUACAGCAATT against Olfr215 | inactive: 0.803
GGCCUCAAGAGCAAUACGUTT against Gm1008 | inactive: -0.0922
GGAAGUAUAAGUGAGCAGATT against Dbnl | inactive: -0.312
GGAAGACACACAGUACAUGTT against Rfx2 | inactive: 1.82
GGCAGAAUAUGUCAACUCGTT against Ddx31 | inactive: 0.394
GGCACUACGUGAUGUAUUATT against Tle1 | inactive: -0.0622
GGAUACUUAGUCUUGAAUCTT against 2410017I18Rik | inactive: 0.881
GGCAAAUUUCACUUUCAUUTT against 0610008A10Rik | inactive: -0.479
GGGUGGACCUUCGGAAUUATT against Mrpl23 | inactive: -0.616
GGACAGCAAGAUGAAGAUGTT against Il17r | inactive: 0.442
GGACAGCAUGAUCCUACAATT against Smr2 | inactive: -1.72
GCAACCUAUUUGUCUCUAUTT against Trhde | inactive: 0.219
GCGAAAGUGUUUGGCUGUATT against Ckt2 | inactive: -2.21
CCUCACUGGUACAAUCCCATT against Tsg101 | inactive: -1.11
CCAAGUAGAUAGGAAUUAUTT against Eps8 | inactive: -0.242
GGAUAUGUACUGUCCAUCUTT against B3galt4 | inactive: -1.47
CCUGGCAGAACUUUGAUAGTT against Fars1 | inactive: -1.61
GCUGCACUAUAGCAUCUGUTT against 4921533L14Rik | inactive: -1.5
GCAAGCACGUCAGAAUCUCTT against Pln | inactive: -0.362

Exported as tab-separated lines: entries from further up
Sequence	z-score
CCACUAUCGCAUACAGCAATT against Olfr215	inactive: 0.803
GGCCUCAAGAGCAAUACGUTT against Gm1008	inactive: -0.0922
GGAAGUAUAAGUGAGCAGATT against Dbnl	inactive: -0.312
GGAAGACACACAGUACAUGTT against Rfx2	inactive: 1.82
GGCAGAAUAUGUCAACUCGTT against Ddx31	inactive: 0.394
GGCACUACGUGAUGUAUUATT against Tle1	inactive: -0.0622
GGAUACUUAGUCUUGAAUCTT against 2410017I18Rik	inactive: 0.881
GGCAAAUUUCACUUUCAUUTT against 0610008A10Rik	inactive: -0.479
GGGUGGACCUUCGGAAUUATT against Mrpl23	inactive: -0.616
GGACAGCAAGAUGAAGAUGTT against Il17r	inactive: 0.442
GGACAGCAUGAUCCUACAATT against Smr2	inactive: -1.72
GCAACCUAUUUGUCUCUAUTT against Trhde	inactive: 0.219
GCGAAAGUGUUUGGCUGUATT against Ckt2	inactive: -2.21
CCUCACUGGUACAAUCCCATT against Tsg101	inactive: -1.11

Next results:

Sequence | z-score
GGCUUCAAAACAAACAUCATT against Hsd17b2 | inactive: 0.432
GCUCAAUGUUUGGCAACUUTT against Olfr1087 | inactive: -0.68
CCUGGUAAUCACAAUUUCGTT against Tor1b | inactive: 1.27
GCUUCUGCUAUAUGUGCAGTT against 9130020G10Rik | inactive: 0.314
CGAAAGGUUUAUCUGUUAGTT against 2310058A11Rik | inactive: 0.612
GCAUGUGAACAUAUUCAAATT against Sfrs2ip | inactive: -0.216
CGAAUAUCCAGAAAUCAAUTT against Zfp162 | inactive: -0.236
GGAGAUUUUCCAGUACACUTT against Btbd12 | inactive: -0.278
GGGACUUUGAGAAGCAGAGTT against Gja10 | inactive: -1.36
GGGCAUUGAAGCAAAUAUATT against Prss7 | inactive: -0.0342
GGAAAUCCACAGGAAAGUGTT against G3bp | inactive: -0.629
UAACAGACCAGUAAAGGCCTT against Klra21 | inactive: -0.445
GGCAUGACAGCGGUUAUCUTT against Slc25a16 | inactive: 1.82
GCGCACAGUACAUUCAUUUTT against Drd5 | inactive: -0.99
CCGUCCACACUUUUUGCUGTT against Isyna1 | inactive: 0.732
GGGUGUGAAAGUCAAUAAATT against 4930591A17Rik | inactive: 0.132
GGAGAUCUAUUGGAUCCAUTT against Trim12 | inactive: 0.418
GCUCAAUAAAGGUGUGGAATT against Cox6a2 | inactive: 0.567
GCCUAUGAUAAGUCUGUGUTT against 6330512M04Rik | inactive: -1.12
GCAUUAUGUCCCAACAUAATT against Olfr935 | inactive: -0.531
GCUUGUAAUGCAGGUUUAATT against 5730509C05Rik | inactive: -1.22
GGAAUCGGACUACCUCAUCTT against Lrp11 | inactive: -0.192

Sequence | z-score
GGACCAUUGCCAGAAACUATT against Ptpn20 | inactive: 0.0122
CCUGAUAUUCAAUCUGCACTT against A730008L03Rik | inactive: 0.131
GCUUAUGAACUAACAUAGATT against Ccr2 | inactive: 0.33
CCUCUCAUAUCAUAGGUAATT against C730026E21Rik | inactive: -0.857
CGUUGCUGACUGCUAUGAATT against Tmprss13 | inactive: -0.39
GGCUCCUUUUUGAGCUGAATT against BC055757 | inactive: -0.313
GGCUAAAAAAAAAUGGUAGTT against Thra | inactive: -0.0839
GGCGAGAGGAAGAAAGACUTT against Mlph | inactive: -1.76
GGCUUUUCACAAAACUGUUTT against Zfp120 | inactive: 0.48
GGGAGCAAACGAGAAGAUATT against Gja9 | inactive: 1.72
GGCUCAUGUACUGCUACAUTT against Ntsr2 | inactive: 0.174
CCCUCCUAGAUACAUUUUGTT against Ifna6T | inactive: 0.0459
CGCGGUAAAUACAAGGAGGTT against 1200014P03Rik | inactive: 0.487
GGCUGUGAUACGACUAAAGTT against Fscn3 | inactive: -0.407
GGACUUUUGAUAGAUGCUATT against Kctd12b | inactive: -0.29
GGAAGGAAGAAAGGGUUCUTT against Olfr1160 | inactive: 0.623
GGCUGAGAACUACUAUUCUTT against Mesp2 | inactive: -0.0193
GGAUGCUUUACCAAAUGAATT against BC010552 | inactive: 0.932
GGUAGCUGUAGUUCUAACUTT against AI597468 | inactive: 0.625
AAGAGGCUUCCGACAAGUGTT against Mt2 | inactive: -0.168
GCUCUUAACAUUUAUGCUATT against 5730421E18Rik | inactive: 1.14
GCCUCAUACCUUGUUACUATT against Gm962 | inactive: -0.682

— PubChem BioAssay AID1347423 (Functional Genomics Laboratory (NCATS/FGL), 2020)
